This series addresses Ku70 (UniProt P12956). The series can be described thus: MST. To be noted: 50 nM labelled DNA, no binding specificity; MST in standard MST buffer (composition and pH not given), premium-treated capillaries, Monolith NT.115; 20 min at room temperature stated for the protein mixes; commercial protein; label: 647-NHS.

The chains behind the UniProt entries cited, without tags or fusion partners. Where a name states a change or a piece, a line headed by the entry shows the natural chain unless it says otherwise.
UniProt P12956: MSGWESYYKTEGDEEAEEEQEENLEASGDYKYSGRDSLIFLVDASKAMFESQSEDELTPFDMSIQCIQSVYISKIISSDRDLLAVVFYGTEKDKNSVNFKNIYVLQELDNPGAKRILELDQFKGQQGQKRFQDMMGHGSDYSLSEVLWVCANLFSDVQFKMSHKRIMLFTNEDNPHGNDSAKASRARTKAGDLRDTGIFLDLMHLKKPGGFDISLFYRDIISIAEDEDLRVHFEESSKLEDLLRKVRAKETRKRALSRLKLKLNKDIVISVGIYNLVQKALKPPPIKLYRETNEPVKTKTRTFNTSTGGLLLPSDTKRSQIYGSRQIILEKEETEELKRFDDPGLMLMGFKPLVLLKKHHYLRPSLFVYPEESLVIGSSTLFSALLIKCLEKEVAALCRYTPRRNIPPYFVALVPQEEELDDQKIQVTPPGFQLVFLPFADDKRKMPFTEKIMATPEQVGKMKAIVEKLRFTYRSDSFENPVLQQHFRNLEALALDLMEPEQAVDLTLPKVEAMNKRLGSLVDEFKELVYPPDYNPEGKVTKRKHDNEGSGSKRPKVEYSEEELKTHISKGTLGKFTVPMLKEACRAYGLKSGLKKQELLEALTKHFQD

For at least one entry, the source does not settle the construct or the ends of the probe.

Turning to “TTAGGGTTAGGGTTAGGG (double strand) [TELO (TTAGGG)3]”, the Kd was 2370 nM. In other words, the single-digit micromolar range.

As a reminder, the Kd is the constant that tells how readily two partners part at equilibrium.

The record behind these values is paper PMC6715699.
